Some entries share one result that the patent states for a list of compounds.
Tests used:
Cydia pomonella = assay: Example B9: activity against Cydia, sprayed diet cubes; assay type: in vivo; conditions: 400 ppm, 1st instar, 14 days at 26° C.
Diabrotica balteata = assay: Example B2: activity against Diabrotica balteata, sprayed maize seedlings; conditions: 400 ppm, 2nd instar larvae, 6 days
Heliothis virescens eggs = assay: Example B4: activity against Heliothis virescens, application to eggs; assay type: in vivo; conditions: 400 ppm, eggs on cotton sprayed, 8 days

Compound | survival rate of the caterpillars and growth regulation (activity) (Cydia pomonella) | percentage reduction in the population (% activity) (Diabrotica balteata) | percentage hatching rate of the eggs and survival rate of the caterpillars (% activity) (Heliothis virescens eggs)
Cc1cc(Cl)cc(C(=O)NCC2CC2(C)C)c1NC(=O)c1cc(C(F)(F)F)nn1-c1ncccc1Cl (centres unmarked) [Compound P24] | over 80% | over 80% | over 80%
Cc1cc(Cl)cc(C(=O)NCCC2CC2(F)Cl)c1NC(=O)c1cc(C(F)(F)F)nn1-c1ncccc1Cl (centres unmarked) [Compound P21] | over 80% | over 80% | over 80%
Cc1cc(Cl)cc(C(=O)NCCC2CC2)c1NC(=O)c1cc(C(F)(F)F)nn1-c1ncccc1Cl [Compound P22] | over 80% | over 80% | –
Cc1cc(Cl)cc(C(=O)NCC2CC2)c1NC(=O)c1cc(Cl)nn1-c1ncccc1Cl [Compound P11] | over 80% | over 80% | over 80%
Cc1cc([N+](=O)[O-])cc(C(=O)NCC2CC2)c1NC(=O)c1cc(C(F)(F)F)nn1-c1ncccc1Cl [Compound P60] | over 80% | over 80% | over 80%
Cc1cc(Cl)cc(C(=O)NCC2(C(F)(F)F)CC2)c1NC(=O)c1cc(C(F)(F)F)nn1-c1ncccc1Cl [Compound P31] | – | – | over 80%
Cc1cc(Cl)cc(C(=O)NCC2CC2)c1NC(=O)c1c(Br)c(OCC(F)(F)F)nn1-c1ncccc1Cl [Compound P69] | – | – | over 80%
CSC1(CNC(=O)c2cc(Cl)cc(C)c2NC(=O)c2cc(C(F)(F)F)nn2-c2ncccc2Cl)CC1 [Compound P29] | – | over 80% | over 80%
Cc1cc(Cl)cc(C(=O)NCC2CC2)c1NC(=O)c1cc(C(F)(F)F)nn1-c1ncccc1Cl [Compound P1] | – | over 80% | over 80%
Cc1cc(Cl)cc(C(=O)NCC2CCO2)c1NC(=O)c1cc(C(F)(F)F)nn1-c1ncccc1Cl (centres unmarked) [Compound P25, N-(4-chloro-2-methyl-6-[([oxetan-2-ylmethyl]amino)carbonyl]phenyl)-1-(3-chloro-2-pyridinyl)-3-(trifluoromethyl)-1H-pyrazole-5-carboxamide] | – | – | over 80%
Cc1cc(Cl)cc(C(=O)NCC2CC2)c1NC(=O)c1cc(OCC(F)(F)F)nn1-c1ncccc1Cl [Compound P46] | – | over 80% | over 80%
Cc1cc(Cl)cc(C(=O)NC2(C3CC3)CC2)c1NC(=O)c1cc(Br)nn1-c1ncccc1Cl [Compound P51] | – | – | over 80%
Cc1cc([N+](=O)[O-])cc(C(=O)NC2(C3CC3)CC2)c1NC(=O)c1cc(Cl)nn1-c1ncccc1Cl [Compound P63] | over 80% | over 80% | over 80%
Cc1cc(Cl)cc(C(=O)NCC2CC(F)(F)C2(F)F)c1NC(=O)c1cc(C(F)(F)F)nn1-c1ncccc1Cl (centres unmarked) [Compound P9] | over 80% | – | over 80%
O=C(NCC1CC1)c1cccc(Cl)c1NC(=O)c1cc(C(F)(F)F)nn1-c1ncccc1Cl [Compound P39] | – | – | over 80%
Cc1cc(Cl)cc(C(=O)NCC2(C)CC2(Br)Br)c1NC(=O)c1cc(C(F)(F)F)nn1-c1ncccc1Cl (centres unmarked) [Compound P8] | over 80% | over 80% | over 80%
Cc1cc(Cl)cc(C(=O)NCC2CCC2)c1NC(=O)c1cc(C(F)(F)F)nn1-c1ncccc1Cl [Compound P15] | over 80% | – | –
Cc1cc(Cl)cc(C(=O)NC2(C3CC3)CC2)c1NC(=O)c1c(Br)c(OCC(F)(F)F)nn1-c1ncccc1Cl [Compound P70] | – | – | over 80%
Cc1cc(Cl)cc(C(=O)NCC2(C)CC2(Cl)Cl)c1NC(=O)c1cc(C(F)(F)F)nn1-c1ncccc1Cl (centres unmarked) [Compound P6] | over 80% | over 80% | over 80%
Cc1cc([N+](=O)[O-])cc(C(=O)NC2(C3CC3)CC2)c1NC(=O)c1cc(C(F)(F)F)nn1-c1ncccc1Cl [Compound P61] | over 80% | – | over 80%
Cc1cc([N+](=O)[O-])cc(C(=O)NC2(C3CC3)CC2)c1NC(=O)c1cc(OCC(F)(F)F)nn1-c1ncccc1Cl [Compound P64] | – | – | over 80%

Compound | survival rate of the caterpillars and growth regulation (activity) (Cydia pomonella) | percentage reduction in the population (% activity) (Diabrotica balteata) | percentage hatching rate of the eggs and survival rate of the caterpillars (% activity) (Heliothis virescens eggs)
Cc1cc(Cl)cc(C(=O)NCC2(C)CC2)c1NC(=O)c1cc(C(F)(F)F)nn1-c1ncccc1Cl [Compound P23] | over 80% | over 80% | over 80%
Cc1cc(Cl)cc(C(=O)NC2CC23CC3)c1NC(=O)c1cc(C(F)(F)F)nn1-c1ncccc1Cl (centres unmarked) [Compound P67] | over 80% | over 80% | over 80%
Cc1cc(Cl)cc(C(=O)NCC2(S(C)(=O)=O)CC2)c1NC(=O)c1cc(C(F)(F)F)nn1-c1ncccc1Cl [Compound P30] | – | – | over 80%
CC(C)=CC1C(CNC(=O)c2cc(Cl)cc(C)c2NC(=O)c2cc(C(F)(F)F)nn2-c2ncccc2Cl)C1(C)C (centres unmarked) [Compound P17] | over 80% | – | –
Cc1cc(Cl)cc(C(=O)NCC2CC2(Br)Br)c1NC(=O)c1cc(C(F)(F)F)nn1-c1ncccc1Cl (centres unmarked) [Compound P7] | over 80% | over 80% | over 80%
Cc1cc(Cl)cc(C(=O)NCC2([S+](C)[O-])CCC2)c1NC(=O)c1cc(C(F)(F)F)nn1-c1ncccc1Cl (centres unmarked) [Compound P13] | over 80% | – | –
Cc1cc(Cl)cc(C(=O)NCC2CC2(F)Cl)c1NC(=O)c1cc(C(F)(F)F)nn1-c1ncccc1Cl (centres unmarked) [Compound P32] | – | – | over 80%
Cc1cc(Cl)cc(C(=O)NCC2(S(C)(=O)=O)CCC2)c1NC(=O)c1cc(C(F)(F)F)nn1-c1ncccc1Cl [Compound P14] | over 80% | over 80% | over 80%
Cc1cc(Cl)cc(C(=O)NC2(C3CC3)CC2)c1NC(=O)c1cc(Cl)nn1-c1ncccc1Cl [Compound P50] | – | over 80% | over 80%
O=C(NC1(C2CC2)CC1)c1cccc(Cl)c1NC(=O)c1cc(C(F)(F)F)nn1-c1ncccc1Cl [Compound P40] | – | – | over 80%
Cc1cc(Cl)cc(C(=O)NC2CC23CCC3)c1NC(=O)c1cc(C(F)(F)F)nn1-c1ncccc1Cl (centres unmarked) [Compound P68] | over 80% | over 80% | over 80%
Cc1cc([N+](=O)[O-])cc(C(=O)NC2(C3CC3)CC2)c1NC(=O)c1cc(Br)nn1-c1ncccc1Cl [Compound P62] | over 80% | over 80% | over 80%
Cc1cc(I)cc(C(=O)NC2(C3CC3)CC2)c1NC(=O)c1c(Br)c(OCC(F)(F)F)nn1-c1ncccc1Cl [Compound P71] | – | – | over 80%
Cc1cc(Cl)cc(C(=O)NC2(C3CC3)CC2)c1NC(=O)c1cc(C(F)(F)F)nn1-c1ncccc1Cl [Compound P3] | over 80% | – | over 80%
Cc1cc(Cl)cc(C(=O)NC(C)C2CC2)c1NC(=O)c1cc(C(F)(F)F)nn1-c1ncccc1Cl (centres unmarked) [Compound P2] | over 80% | over 80% | over 80%
Cc1cc(Cl)cc(C(=O)NCC2CC2)c1NC(=O)c1cc(Br)nn1-c1ncccc1Cl [Compound P10] | over 80% | – | over 80%
Cc1cc(Cl)cc(C(=O)NC2(C3CC3)CC2)c1NC(=O)c1cc(OCC(F)(F)F)nn1-c1ncccc1Cl [Compound P48] | – | over 80% | over 80%
Cc1cc(I)cc(C(=O)NCC2CC2)c1NC(=O)c1c(Br)c(OCC(F)(F)F)nn1-c1ncccc1Cl [Compound P72] | – | – | over 80%
Cc1cc(Cl)cc(C(=O)NC(C)C2CCC2)c1NC(=O)c1cc(C(F)(F)F)nn1-c1ncccc1Cl (centres unmarked) [Compound P66] | over 80% | over 80% | –
CSC1(CNC(=O)c2cc(Cl)cc(C)c2NC(=O)c2cc(C(F)(F)F)nn2-c2ncccc2Cl)CCC1 [Compound P12] | over 80% | – | –
